The values below come from patent US20140120106A1, “Stimulation of Arterial Collateral Growth and Lymphogenesis” (YALE UNIVERSITY, priority 2011, published 2014).

For the series, the system named is VE-cadherin-tTA/RAF1S259A double transgenic embryos. Put plainly: Endothelial-specific RAF1S259A transgenic mice (Noonan syndrome mouse model). Format: in vivo. The text has this: Human wild type Raf1 and RAF1S259A plasmids were gifts of Dr. Guri Tzivion (Wayne State University). To generate RAF1S259A transgenic mice, hRAF1S259A was cloned to NotI+PstI sites of pBI-G Tet-off vector (Clontech). TRE-RAF1S259A transgenic mouse line was then generated at the Yale Animal Genomics Services center. VE-cadherin-tT A mice (Sun, et al. Proc Natl Acad Sci USA 102:128-133 (2005)) were from W. Sessa lab (Yale). Time-mating was setup by intercross of male TRE-RAF1 S259A mice with VE-cadherin-tTA female mice. For paraffin and frozen sections, embryos were fixed in 4% paraformaldehyde for overnight at 4° C.
Primary mouse endothelial cells were isolated from E12.5 embryos using a protocol similar to that described by Ren, et al. J Clin Invest 120:1217-1228 (2010). Briefly, E12.5 embryos were harvested, minced finely with scissors, and then digested in 25 ml collagenase 0.2% (w/v) at 37° C. for 20 minutes. The crude cell preparation was pelleted and resuspended in DPBS. The cell suspension was incubated with CD31-coated beads (Invitrogen) at room temperature for 10 minutes with rotation. Using a magnetic separator, the bead-bound cells were recovered, washed with DMEM-20% FBS. The cells were then used for gene expression analysis by qPCR.

Take “RAF1 S259A: RAF1 Ser259 to Ala259 mutant, not inhibited by AKT; expressed from lentivirus, adenovirus or endothelial transgene”: where the note is “E12.5 or E14.5 embryos versus littermate controls”, the “LEC proliferation (number of Ki67+/PROX1+ cells)” value is recorded as “No significant differences”. In addition, where the note is “E14.5 S259A embryos versus control littermates”, the “diameter of skin lymphatic vessels” value was “twice”. Moreover, the “cardinal vein size (lumen area)” value (S259A embryos by E14.5 versus littermate controls) is on record as “significantly smaller”. The substance also had a lethality (S259A embryos, by E15.5) of about 100%.
